Measured values taken from patent EP4800020A2, “ZWITTERIONIC REAGENTS” (Siemens Healthcare Diagnostics, Inc., priority 2010, dated 2011).

Tests used:
PMP-anti-TSH antibody = test: Fractional non-specific binding (fNSB) of chemiluminescent conjugates to PMP solid phase; conditions: for fNSB, Solid Phase PMP: Table 3, NSP-DMAE-AVD, # of zwitterionic labels in input 0
[1] = system: Dynal M280-streptavidin bound biotinylated polyclonal goat anti-PTH antibody; test: Fractional non-specific binding (fNSB) of chemiluminescent conjugates to M280 solid phase
[2] = system: Dynal M270-streptavidin bound biotinylated monoclonal mouse anti-cTnI antibody; test: Fractional non-specific binding (fNSB) of chemiluminescent conjugates to M270 solid phase
[3] = conjugate further labeled with 25 equivalents of Z3-PFP, 10 minutes incubation
[4] = conjugate labeled only with NSP-DMAE, 10 minutes incubation
[5] = Table 3, NSP-DMAE-AVD, # of zwitterionic labels in input 0

Substance	fNSB, Solid Phase PMP, Z3-PFP Modified (PMP-anti-TSH antibody; [3])	fNSB, Solid Phase M280, Z3-PFP Modified [1, 3]	fNSB, Solid Phase M270, Z3-PFP Modified [2, 3]	fNSB, Solid Phase PMP (PMP-anti-TSH antibody; listed as Control)	fNSB, Solid Phase PMP (PMP-anti-TSH antibody; listed as NSP-DMAE-avidin)	fNSB, Solid Phase PMP, Unmodified (PMP-anti-TSH antibody; [4])	fNSB, Solid Phase M280 [1, 5]	fNSB, Solid Phase M280, Unmodified [1, 4]	fNSB, Solid Phase M270 [2, 5]	fNSB, Solid Phase M270, Unmodified [2, 4]
NSP-DMAE-AVD Z3-PFP Modified: acridinium ester-labeled avidin further labeled with 25 equivalents of Z3-PFP, compound 2c	1.7 x 10^-4	8.3 x 10^-5	5.2 x 10^-4							
NSP-DMAE-AVD: egg white avidin (AVD) labeled with 10 equivalents of the acridinium ester NSP-DMAE				1.1 x10^-3	1.3 x 10^-3	1.3 x 10^-3	1.8 x10^-4	1.6 x 10^-4	2.4 x10^-3	6.3 x 10^-2
